Source: PubChem BioAssay AID330 (DTP/NCI, 2004)
The list shows only some results of the screen, not a fair sample: it gathers tests that were run many times, whatever their T/C, doses with no T/C, and many T/C values between a quarter and a half above the control. Further doses and runs are listed elsewhere. T/C: endpoint of the treated group in % of that of the vehicle group. Some doses have a count of surviving animals in place of a T/C: the source files T/C as zero there, which appears to mark a toxic dose or a test without result, not a measured value. Some doses without a T/C left all or most animals alive at the check, yet need not have been tolerated: survival well below the control is almost never listed, so the zero probably covers shortened survival too. Counts of survivors are from the toxicity check (mostly the fifth day) where no day follows; animals may have died later. Schedule codes are those of the source, read here as Q, the interval in days (D) or hours (H), X, the number of doses. For survival time, this PubChem deposit counts one and a half times the control or more as active, and values a quarter to a half above the control carry no call in these data; other NCI protocols may use other cut-offs.

System: P388 leukemia ip, CD2F1 mice, survival T/C
Assay: NCI In Vivo Anticancer Drug Screen. Data for tumor model P388 Leukemia (intraperitoneal) in CD2F1 (CDF1) mice
Conditions: T/C endpoint: median survival time, higher T/C = longer survival
[1] = dose: 60.0 mg/kg/injection, schedule: Q01DX005 (ip), vehicle: saline with Tween-80
[2] = dose: 120.0 mg/kg/injection, schedule: Q01DX005 (ip), vehicle: saline with Tween-80
[3] = dose: 240.0 mg/kg/injection, schedule: Q01DX005 (ip), vehicle: saline with Tween-80
[4] = dose: 50.0 mg/kg/injection, schedule: Q01DX005 (ip), vehicle: saline with Tween-80
[5] = dose: 100.0 mg/kg/injection, schedule: Q01DX005 (ip), vehicle: saline with Tween-80
[6] = dose: 200.0 mg/kg/injection, schedule: Q01DX005 (ip), vehicle: saline with Tween-80
[7] = dose: 100.0 mg/kg/injection, schedule: Q01DX005 (ip), vehicle: saline
[8] = dose: 200.0 mg/kg/injection, schedule: Q01DX005 (ip), vehicle: saline

SMILES: COc1ccc2c(c1)C1CN(Cc3ccccc31)C2 (stereo not given)
- survivor count (dose: 200.0 mg/kg/injection, schedule: Q01DX001 (ip), vehicle: saline with Tween-80): 2 of 6
- survivor count (dose: 400.0 mg/kg/injection, schedule: Q01DX001 (ip), vehicle: saline with Tween-80): 0 of 6

SMILES: CCC(=O)c1c(C)oc2ccc(O)cc12
- survivor count (dose: 100.0 mg/kg/injection, schedule: Q04DX002 (ip), vehicle: Klucel (hydroxypropylcellulose) (HPC)): 6 of 6

SMILES: COC(=O)C(=O)c1c(C(=O)OC)nc2[nH]n(-c3ccccc3)c(=O)c2c1-c1cccc2ccccc12
- survivor count [1]: 6 of 6
- survivor count [2]: 6 of 6
- survivor count [3]: 3 of 6

SMILES: N#CC1(C#N)C2CCCCC21 (stereo not given)
- survivor count [1]: 0 of 6
- survivor count [2]: 0 of 6
- survivor count [3]: 0 of 6

SMILES: CC(=O)N(OC1OC(CO)C(O)C(O)C1O)c1ccc(Oc2ccc(Cl)cc2)cc1 (stereo not given)
- survivor count (dose: 240.0 mg/kg/injection, schedule: Q01DX005 (ip), vehicle: Klucel (hydroxypropylcellulose) (HPC)): 3 of 6

SMILES: CSc1ccc(N2C(N)=NC(N)=NC2(C)C)cc1
- survivor count [4]: 3 of 5
- survivor count [5]: 0 of 5
- survivor count [6]: 0 of 5

SMILES: CC(=O)CC1CCCC(C#N)N1 (stereo not given)
- survivor count [7]: 0 of 5
- survivor count [8]: 0 of 5

SMILES: CCN(CC)CCNc1nc(NCCN(CC)CC)c2cn[nH]c2n1
- survivor count (dose: 12.0 mg/kg/injection, schedule: Q01DX005 (ip), vehicle: saline): 4 of 5
- survivor count (dose: 25.0 mg/kg/injection, schedule: Q01DX005 (ip), vehicle: saline): 0 of 5
- survivor count (dose: 50.0 mg/kg/injection, schedule: Q01DX005 (ip), vehicle: saline): 0 of 5
- survivor count [7]: 0 of 5
- survivor count [8]: 0 of 5

SMILES: COc1ccc(C(=O)O[C@H]2CC[C@@]3(C)[C@@H]4CC[C@H]5[C@]6(O)C[C@H](O)[C@@]7(O)[C@@H](CN8C[C@@H](C)CC[C@H]8[C@@]7(C)O)[C@]6(O)C[C@@]53OC24O)cc1OC
- survivor count [4]: 0 of 5
- survivor count [5]: 0 of 5
- survivor count [6]: 0 of 5

SMILES: O=C1C2CC(CN3CCCCC23)C2CCCCN12 (stereo not given)
- survivor count (dose: 300.0 mg/kg/injection, schedule: Q01DX009 (ip), vehicle: saline): 2 of 6

SMILES: c1ccc(OCCC[P+](c2ccccc2)(c2ccccc2)c2ccccc2)cc1
- survivor count (dose: 3.13 mg/kg/injection, schedule: Q01DX009 (ip), vehicle: saline sonified): 3 of 6
- T/C (dose: 6.0 mg/kg/injection, schedule: Q01DX010 (ip), vehicle: carboxymethylcellulose (CMC)): 130 % of control
- T/C (dose: 6.25 mg/kg/injection, schedule: Q01DX009 (ip), vehicle: saline sonified): 125 % of control
- survivor count (dose: 9.3 mg/kg/injection, schedule: Q01DX009 (ip), vehicle: saline sonified): 4 of 6
- survivor count (dose: 12.5 mg/kg/injection, schedule: Q01DX009 (ip), vehicle: saline sonified): 3 of 6
- survivor count (dose: 25.0 mg/kg/injection, schedule: Q01DX009 (ip), vehicle: saline with Tween-80): 4 of 6
- survivor count (dose: 50.0 mg/kg/injection, schedule: Q01DX009 (ip), vehicle: saline with Tween-80): 0 of 6
- survivor count (dose: 100.0 mg/kg/injection, schedule: Q01DX009 (ip), vehicle: saline with Tween-80): 0 of 6

SMILES: NCCCN1CCCC1
- survivor count [8]: 0 of 5

SMILES: CC(C)c1ccc(C(CC(=O)C(C)(C)C)C(C(=O)O)c2ccc([N+](=O)[O-])cc2)cc1 (stereo not given)
- survivor count (dose: 200.0 mg/kg/injection, schedule: Q01DX009 (ip), vehicle: Klucel (hydroxypropylcellulose) (HPC)): 0 of 6

SMILES: COc1cc2c(c3c1c(=O)c1ccccc1n3C)C=C([N+](=O)[O-])C(C)(C)O2
- survivor count (dose: 24.0 mg/kg/injection, schedule: Q01DX005 (ip), vehicle: saline + Tween-80 + alcohol): 6 of 6
